Laboratory results taken from paper PMC8199199.
Results are given in words; binding and its absence hold for the method and conditions named. In cells and extracts the contact can be indirect. Some entries that bind do so weakly or less than the wild type.

Sequences of proteins named here, by UniProt entry; tags and fusion partners are left off.
UniProt P03372: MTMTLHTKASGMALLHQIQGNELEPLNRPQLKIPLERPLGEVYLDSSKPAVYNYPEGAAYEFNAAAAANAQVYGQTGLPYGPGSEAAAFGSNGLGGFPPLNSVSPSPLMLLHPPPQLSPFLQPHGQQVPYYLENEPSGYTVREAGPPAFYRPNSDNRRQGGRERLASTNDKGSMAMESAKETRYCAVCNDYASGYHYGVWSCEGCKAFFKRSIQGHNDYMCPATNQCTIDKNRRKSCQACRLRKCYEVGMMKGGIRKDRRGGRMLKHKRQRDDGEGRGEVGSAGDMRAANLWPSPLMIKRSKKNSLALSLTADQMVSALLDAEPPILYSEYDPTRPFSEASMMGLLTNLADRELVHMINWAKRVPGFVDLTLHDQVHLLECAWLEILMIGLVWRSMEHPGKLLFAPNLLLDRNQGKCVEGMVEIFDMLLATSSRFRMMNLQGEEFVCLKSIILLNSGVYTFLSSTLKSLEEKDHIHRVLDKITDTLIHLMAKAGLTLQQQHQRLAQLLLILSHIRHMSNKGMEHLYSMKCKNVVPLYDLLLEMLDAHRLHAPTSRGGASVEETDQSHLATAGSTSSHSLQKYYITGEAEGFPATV
UniProt O75376: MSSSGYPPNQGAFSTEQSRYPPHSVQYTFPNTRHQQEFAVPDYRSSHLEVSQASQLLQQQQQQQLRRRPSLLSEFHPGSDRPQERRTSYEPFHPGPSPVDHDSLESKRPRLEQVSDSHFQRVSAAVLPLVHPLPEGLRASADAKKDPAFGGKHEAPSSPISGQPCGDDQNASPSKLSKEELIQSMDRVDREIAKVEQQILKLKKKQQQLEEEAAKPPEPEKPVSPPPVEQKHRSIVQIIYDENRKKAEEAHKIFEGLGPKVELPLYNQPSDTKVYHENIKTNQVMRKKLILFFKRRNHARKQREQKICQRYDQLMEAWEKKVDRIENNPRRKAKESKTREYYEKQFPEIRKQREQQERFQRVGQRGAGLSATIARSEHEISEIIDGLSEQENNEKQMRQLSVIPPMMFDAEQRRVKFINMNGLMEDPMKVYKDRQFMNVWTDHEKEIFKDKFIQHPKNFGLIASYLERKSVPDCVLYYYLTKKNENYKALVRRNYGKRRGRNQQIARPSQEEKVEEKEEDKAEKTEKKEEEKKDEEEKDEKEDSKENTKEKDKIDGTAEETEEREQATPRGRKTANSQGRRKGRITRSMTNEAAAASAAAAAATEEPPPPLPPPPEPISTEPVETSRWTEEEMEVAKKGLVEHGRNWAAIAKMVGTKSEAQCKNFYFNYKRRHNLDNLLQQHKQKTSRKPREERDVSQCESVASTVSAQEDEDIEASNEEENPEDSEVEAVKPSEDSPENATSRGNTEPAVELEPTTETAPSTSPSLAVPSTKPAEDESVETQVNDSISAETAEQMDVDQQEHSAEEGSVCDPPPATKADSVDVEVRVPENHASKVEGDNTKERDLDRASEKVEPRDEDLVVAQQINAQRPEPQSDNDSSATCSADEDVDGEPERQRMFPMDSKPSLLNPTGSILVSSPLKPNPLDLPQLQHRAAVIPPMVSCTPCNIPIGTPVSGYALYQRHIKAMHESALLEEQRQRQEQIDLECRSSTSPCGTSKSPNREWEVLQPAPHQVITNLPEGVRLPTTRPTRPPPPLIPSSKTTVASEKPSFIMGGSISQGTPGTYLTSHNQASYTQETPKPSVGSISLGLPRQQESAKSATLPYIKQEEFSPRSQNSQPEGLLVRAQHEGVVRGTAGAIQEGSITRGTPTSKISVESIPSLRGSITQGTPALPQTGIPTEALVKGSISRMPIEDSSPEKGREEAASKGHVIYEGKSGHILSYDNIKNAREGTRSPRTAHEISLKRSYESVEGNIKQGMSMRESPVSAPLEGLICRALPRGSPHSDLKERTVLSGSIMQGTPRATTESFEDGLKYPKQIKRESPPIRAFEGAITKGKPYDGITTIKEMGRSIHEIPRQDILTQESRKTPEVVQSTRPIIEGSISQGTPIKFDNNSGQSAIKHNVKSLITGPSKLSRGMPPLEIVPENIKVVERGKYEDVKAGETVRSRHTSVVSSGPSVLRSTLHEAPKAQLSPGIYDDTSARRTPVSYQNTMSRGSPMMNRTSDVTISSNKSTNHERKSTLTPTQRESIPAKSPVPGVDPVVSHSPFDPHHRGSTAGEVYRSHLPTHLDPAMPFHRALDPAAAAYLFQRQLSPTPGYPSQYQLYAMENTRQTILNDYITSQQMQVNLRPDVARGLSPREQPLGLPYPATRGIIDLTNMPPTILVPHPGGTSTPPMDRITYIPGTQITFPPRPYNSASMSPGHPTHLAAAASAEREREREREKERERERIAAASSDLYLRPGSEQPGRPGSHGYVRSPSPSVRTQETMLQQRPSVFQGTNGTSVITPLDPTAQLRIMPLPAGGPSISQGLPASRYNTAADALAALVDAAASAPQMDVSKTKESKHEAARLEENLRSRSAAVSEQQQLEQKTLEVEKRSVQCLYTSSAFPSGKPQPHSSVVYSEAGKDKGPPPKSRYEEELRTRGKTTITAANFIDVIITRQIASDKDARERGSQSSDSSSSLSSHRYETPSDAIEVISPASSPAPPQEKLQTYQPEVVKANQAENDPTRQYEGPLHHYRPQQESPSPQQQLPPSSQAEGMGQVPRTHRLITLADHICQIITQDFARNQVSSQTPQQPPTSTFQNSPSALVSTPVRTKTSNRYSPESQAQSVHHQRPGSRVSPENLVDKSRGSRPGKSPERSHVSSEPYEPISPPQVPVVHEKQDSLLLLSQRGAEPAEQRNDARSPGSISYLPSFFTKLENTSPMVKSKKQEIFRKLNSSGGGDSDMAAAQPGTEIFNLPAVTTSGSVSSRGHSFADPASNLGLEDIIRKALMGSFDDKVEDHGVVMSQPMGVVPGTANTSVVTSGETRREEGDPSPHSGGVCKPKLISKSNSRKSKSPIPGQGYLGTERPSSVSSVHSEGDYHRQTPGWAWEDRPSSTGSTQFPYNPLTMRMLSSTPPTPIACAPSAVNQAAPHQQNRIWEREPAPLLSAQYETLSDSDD

What was measured:
[1] = molecular target: estrogen receptor α (human (endogenous in MCF7)) (UniProt P03372); test: co-IP; immunoprecipitation with an anti-ERα antibody from MCF7 cell lysates, cells without TNFα treatment; immunoblot with the indicated antibodies
[2] = molecular target: estrogen receptor α (human (endogenous in MCF7)) (UniProt P03372); test: co-IP; immunoprecipitation with an anti-ERα antibody from MCF7 cell lysates, cells treated with TNFα; immunoblot with the indicated antibodies

nuclear receptor corepressor 1 (from UniProt O75376 1-2440)
binding [1]: binds
binding [2]: no binding (condition: cells treated with TNFα)
